This note sets out measurements from PubChem BioAssay AID1487 (National Center for Advancing Translational Sciences (NCATS), 2009).

The nature of the assay: qHTS Assay for Modulators of Lamin A Splicing. The conditions noted are these: HeLa LMNA splicing GFP/RFP minigene ratio, 48 h. The procedure, abridged: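 S3 HeLa cells stably expressing lamin A-EGFP splicing minigene plus DsRed2, 600 cells/well, 48 h compound exposure at 37C. Laser-scanning cytometry; analysed as GFP (500-530 nm)/RFP (575-640 nm) total intensity ratio; 0.5% DMSO vehicle.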
For orientation: Quantitative high-throughput screening tests each substance at several concentrations.

Setting [1] is: measured here: RFP viability control channel.
The mark [2] stands for this setting: measured here: GFP splicing reporter channel.

The structures appear in SMILES notation. This is one part of the list. Further columns of the screen follow, without active or inactive calls. Compounds called inactive in the main read-out are mostly missing here. Potencies come from curve fits of mixed quality, noted in brackets.

Broadly, the AC50 is the concentration giving half of the maximal activity seen. Take `Cc1ccc(C2=NC3(CCCC3)N=C2SCC(=O)Nc2ccc3c(c2)OCCO3)cc1`: the AC50 under setting [1] was 11.2 µM [rising, partial curve].

With `COc1ccc(CC(=O)NCc2ccc3c(c2)CCN3C(=O)c2ccc(Cl)cc2)cc1`, the concentration at half-maximal activity (AC50) is, setting by setting: under setting [2], 12.6 µM [rising, partial curve, poor fit]; under setting [1], 31.6 µM [rising, single point].

For the molecule `Fc1ccc(OCCCCCCN2CCCC2)cc1`, the AC50 reads like this: under setting [2], 3.98 µM [falling, single point]; under setting [1], 3.16 µM [falling, single point].

Turning to `N#Cc1sc2nc3c(cc2c1N)CCCC3`, the AC50 was 7.08 µM [falling, full curve, poor fit] under setting [2] and 4.47 µM [falling, full curve, poor fit] under setting [1].

Regarding `CSCC[C@H](NC(=O)OC(C)(C)C)c1nnc(SCc2ccccc2)o1`, the AC50 is, setting by setting: under setting [2], 22.4 µM [rising, single point]; under setting [1], 35.5 µM [rising, single point].

Take `N#Cc1nc(-c2ccccc2F)oc1NCc1cccc2c1OCO2`: the AC50 under setting [1] is 31.6 µM [rising, single point].

As to `N#CC(C#N)=C1C=C2C=C(N3CCCCC3)CCC2CC1` (stereo not drawn), the AC50 is, setting by setting: under setting [2], 0.891 µM [falling, full curve]; under setting [1], 1 µM [falling, full curve].

Turning to `CCOc1ccc(CCNC(=O)CCSCc2ccc(Cl)cc2)cc1OCC`, the AC50 under setting [1] was 22.4 µM [rising, single point].

`O=C(NCCC1=CCCCC1)C1COc2ccccc2O1` (stereo not drawn): the AC50 is, setting by setting: under setting [2], 0.00447 µM [rising, full curve, poor fit]; under setting [1], 0.00447 µM [rising, full curve, poor fit].

For `CN(C)Cc1ccccc1-c1nc(NCc2ccccc2)c2ccccc2n1`, the AC50 under setting [1] is 12.6 µM [rising, partial curve, poor fit].

As for `N#C/C(=C\C=C\c1ccccc1)C(=O)NCc1cccnc1`, under setting [1], the AC50 was 12.6 µM [rising, single point].

As for `CCn1ncc(C(=O)Nc2ccc(S(=O)(=O)N3CCCC3)cc2)c1C`, the half-maximal activity concentration (AC50) under setting [2] was 35.5 µM [rising, single point].

As to `O=C(c1ccc(Cl)c(S(=O)(=O)Nc2ccccc2C(=O)N2CCc3ccccc3C2)c1)N1CCc2ccccc2C1`, the AC50 under setting [1] is 12.6 µM [rising, single point].

Take `Cc1ccc(NC(=S)NC(=O)c2ccc(F)cc2)cc1S(=O)(=O)Nc1ccccc1Cl`: the AC50 under setting [1] is 31.6 µM [rising, single point].

With `COc1ccc(-n2nc([N+](=O)[O-])c(=NCCc3ccccc3)n2O)cc1`, the AC50 under setting [1] is 35.5 µM [rising, single point].

In the case of `CC(C)C1CCC(C(=O)NC(Cc2ccccc2)C(=O)O)CC1` (stereo not drawn), the AC50 by setting is: under setting [2], 0.708 µM [rising, single point]; under setting [1], 0.794 µM [rising, full curve, poor fit].
